At least one compound was matched to its structure with a doubt left.
Target: Grb2 (Homo sapiens, UniProt P62993)
Test: ELISA competition test (Grb2/biotin-Aha-PSpYVNVQN displacement)
Type: binding
Conditions: displacement of GST-Grb2 (40 ng/ml) from fixed peptide biotin-Aha-PSpYVNVQN (Shc tyrosine 317)
Procedure: Plates pre-treated with streptavidine (Boehringer) are incubated overnight at 4° C. with 100 μl of a solution of peptide biotin-Aha-PSpYVNVQN (Aha: 6-amino-hexanoic acid) (100 nM solution in TBS buffer Tris 100 mM, NaCl 50 mM, pH 7.5) per well. The non-specific binding is then blocked by incubating for 4 hours with the same buffer containing 3% of skimmed milk ([…]). The products to be tested are distributed among the wells at the desired dilution in the abovementioned buffer containing 3% of skimmed milk and 40 ng/ml of GST-Grb2 (100 μl per well). After one night's incubation, the plates are carefully rinsed 4 times using TBS-milk-0.05% tween 20, then incubated for 2 hours at 37° C., in the presence of 100 μl per well of anti-GST antibody (transduction, dilution 1/500 in TBS-milk-0.05% tween 20). The plates are then carefully rinsed 4 times using TBS-milk-0.05% tween 20, then incubated for 45 minutes at 37° C. in the presence of 100 µl per well of anti-mouse antibody coupled with peroxidase (Amersham, 1/1000 dilution in TBS-milk-0.05% tween 20). […] The reading is taken at 550 nm. The value read off for each well is then reduced by the control value of an equivalent well with no fixed peptide biotin-Aha-PSpYVNVQN then treated, like its homologue, with fixed peptide. […]

Protein sequences, listed by entry. Tags and fused reporters are not part of them.
UniProt P62993, whole entry, species assumed: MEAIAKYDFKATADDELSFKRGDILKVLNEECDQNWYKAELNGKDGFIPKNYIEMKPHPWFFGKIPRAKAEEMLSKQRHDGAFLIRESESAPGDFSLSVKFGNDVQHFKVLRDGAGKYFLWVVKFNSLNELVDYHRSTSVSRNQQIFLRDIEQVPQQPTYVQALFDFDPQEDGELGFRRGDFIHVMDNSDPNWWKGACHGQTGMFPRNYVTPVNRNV

## CC(Cc1ccc(OP(=O)(O)O)cc1)(NC(=O)[C@H](Cc1ccc(O)cc1)NC(=O)OCc1cccc(N)c1)C(=O)N[C@@H](CC(N)=O)C(N)=O (stereo partly drawn) [mAZ-Tyr-(αMe)pTyr-Asn-NH2, reference compound]
  IC50: 698 nM

— patent US20020055463A1, “Pseudopeptide compounds having an inhibiting activity with respect to paths activated by proteins with active tyrosine kinase activity and pharmaceutical compositions containing same” (priority 1998, published 2002)
